# Test results taken from the supplement of paper PMC8728848.
# This is one part of the list.
# What was measured:
# Experiment in all cases: glycan array binding signal (z-score within array); higher = stronger binding
# Conditions in all cases: glycan notation: IUPAC condensed, linker removed
# Gal3S6S(b1-4)GlcNAc6S = biological target: Gal3S6S(b1-4)GlcNAc6S
# Summary of the method: (§1)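 Glycan array binding is given as a within-array Z-score, which can be read as non-binding when negative. The arrays, 3228 of them, came from the Consortium for Functional Glycomics database and were retained only where the protein sequence was available. Z-scores were averaged across arrays of the same protein sequence at different concentrations or buffers and across linkers.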
# Gal4S(b1-4)GlcNAc = biological target: Gal4S(b1-4)GlcNAc
# Summary of the method: as §1
# Gal4S6S(b1-4)GlcNAc = biological target: Gal4S6S(b1-4)GlcNAc
# Summary of the method: as §1
# Gal6P(b1-4)GlcNAc = biological target: Gal6P(b1-4)GlcNAc
# Summary of the method: as §1
# Gal6S(b1-3)GlcNAc = biological target: Gal6S(b1-3)GlcNAc
# Summary of the method: as §1
# Gal6S(b1-3)GlcNAc6S = biological target: Gal6S(b1-3)GlcNAc6S
# Summary of the method: as §1
# Gal6S(b1-4)Glc = biological target: Gal6S(b1-4)Glc
# Summary of the method: as §1
# Gal6S(b1-4)Glc6S = biological target: Gal6S(b1-4)Glc6S
# Summary of the method: as §1
# Gal6S(b1-4)GlcNAc = biological target: Gal6S(b1-4)GlcNAc
# Summary of the method: as §1
# Gal6S(b1-4)GlcNAc6S = biological target: Gal6S(b1-4)GlcNAc6S
# Summary of the method: as §1
# GalNAc(a1-3)Gal = biological target: GalNAc(a1-3)Gal
# Summary of the method: as §1
# GalNAc(a1-3)GalNAc = biological target: GalNAc(a1-3)GalNAc
# Summary of the method: as §1
# [1] = biological target: GalNAc(a1-3)GalNAc(a1-3)Gal(a1-4)Gal(b1-4)GlcNAc
# Summary of the method: as §1
# [2] = biological target: GalNAc(a1-3)GalNAc(b1-3)Gal(a1-4)Gal(b1-4)Glc
# Summary of the method: as §1
# GalNAc(b1-3)Gal = biological target: GalNAc(b1-3)Gal
# Summary of the method: as §1
# [3] = biological target: GalNAc(b1-3)Gal(a1-4)Gal(b1-4)GlcNAc
# Summary of the method: as §1
# [4] = biological target: GalNAc(b1-3)Gal(a1-4)Gal(b1-4)GlcNAc(b1-3)Gal(b1-4)Glc
# Summary of the method: as §1
# [5] = biological target: GalNAc(b1-3)Gal(a1-6)Gal(b1-4)Glc
# Summary of the method: as §1
# GalNAc(b1-3)GalNAc = biological target: GalNAc(b1-3)GalNAc
# Summary of the method: as §1
# GalNAc(b1-3)GlcNAc = biological target: GalNAc(b1-3)GlcNAc
# Summary of the method: as §1
# GalNAc(b1-4)Gal(b1-4)Glc = biological target: GalNAc(b1-4)Gal(b1-4)Glc
# Summary of the method: as §1
# GalNAc(b1-4)GlcNAc = biological target: GalNAc(b1-4)GlcNAc
# Summary of the method: as §1
# [6] = biological target: GalNAc(b1-4)GlcNAc(b1-2)Man
# Summary of the method: as §1
# [7] = biological target: GalNAc(b1-4)GlcNAc(b1-2)Man(a1-3)[GalNAc(b1-4)GlcNAc(b1-2)Man(a1-6)]Man(b1-4)GlcNAc(b1-4)GlcNAc
# Summary of the method: as §1
# [8] = biological target: GalNAc(b1-4)GlcNAc(b1-3)GalNAc(b1-4)GlcNAc
# Summary of the method: as §1
# GalNAc(b1-4)GlcNAc6S = biological target: GalNAc(b1-4)GlcNAc6S
# Summary of the method: as §1
# GalNAc(b1-6)GalNAc = biological target: GalNAc(b1-6)GalNAc
# Summary of the method: as §1
# GalNAc3S(b1-4)GlcNAc = biological target: GalNAc3S(b1-4)GlcNAc
# Summary of the method: as §1
# GalNAc3S(b1-4)GlcNAc3S = biological target: GalNAc3S(b1-4)GlcNAc3S
# Summary of the method: as §1
# [9] = biological target: GalNAc3S(b1-4)[Fuc(a1-3)]GlcNAc
# Summary of the method: as §1
# GalNAc4S6S(b1-4)GlcNAc = biological target: GalNAc4S6S(b1-4)GlcNAc
# Summary of the method: as §1
# GalNAc6S(b1-4)GlcNAc = biological target: GalNAc6S(b1-4)GlcNAc
# Summary of the method: as §1
# Glc(a1-4)Glc = biological target: Glc(a1-4)Glc
# Summary of the method: as §1
# [10] = biological target: Glc(a1-4)Glc(a1-4)Glc(a1-4)Glc
# Summary of the method: as §1
# Glc(a1-6)Glc(a1-6)Glc = biological target: Glc(a1-6)Glc(a1-6)Glc
# Summary of the method: as §1
# [11] = biological target: Glc(a1-6)Glc(a1-6)Glc(a1-6)Glc
# Summary of the method: as §1
# Glc(b1-4)Glc = biological target: Glc(b1-4)Glc
# Summary of the method: as §1
# Glc(b1-6)Glc = biological target: Glc(b1-6)Glc
# Summary of the method: as §1
binder,measurement,setting,value
Epf (Streptococcus pyogenes) (protein) GDHGPEFNGVMVVKAAEAEELPDDLMNFKGTWEVSADGSSGRFFSKGATDSYVFHLIPAKDVKKPGWREHNEVKDSYIKIDKQSIAARYKTSTTAPYSVAFKVNTKSLIKDHDYKITFEQGQIASGITVDYRIGSAFNKTTDDSFKISDESKYASNVKIEGEEQGFKQREQGDKTISFRTLKEGPMSLVLLSKVEKKPQGDLDVEFKNLKIIDVTNPSQLDKGVAYVGNKNVQLTLKSDDGRTNFEGDEISLFNSRGELLQTVTVTKDQQNPISITLSEDQAKSLKNKEKLKVSIKQKQSKKTSKDFFFEVGIDPKVEAKQKEKLLELDKVKKQIEDSINGDAWLPEKPVDLQGDHGLSAWSHPQFEK,glycan array binding signal (z-score),Gal3S6S(b1-4)GlcNAc6S,0.334
same,glycan array binding signal (z-score),Gal4S(b1-4)GlcNAc,-0.783
same,glycan array binding signal (z-score),Gal4S6S(b1-4)GlcNAc,-0.669
same,glycan array binding signal (z-score),Gal6P(b1-4)GlcNAc,0.72
same,glycan array binding signal (z-score),Gal6S(b1-3)GlcNAc,-0.499
same,glycan array binding signal (z-score),Gal6S(b1-3)GlcNAc6S,-1.31
same,glycan array binding signal (z-score),Gal6S(b1-4)Glc,0.285
same,glycan array binding signal (z-score),Gal6S(b1-4)Glc6S,-1.45
same,glycan array binding signal (z-score),Gal6S(b1-4)GlcNAc,-1.32
same,glycan array binding signal (z-score),Gal6S(b1-4)GlcNAc6S,2.34
same,glycan array binding signal (z-score),GalNAc(a1-3)Gal,-1.32
same,glycan array binding signal (z-score),GalNAc(a1-3)GalNAc,-1.64
same,glycan array binding signal (z-score),[1],0.701
same,glycan array binding signal (z-score),[2],0.674
same,glycan array binding signal (z-score),GalNAc(b1-3)Gal,0.886
same,glycan array binding signal (z-score),[3],0.386
same,glycan array binding signal (z-score),[4],-0.002
same,glycan array binding signal (z-score),[5],-1.66
same,glycan array binding signal (z-score),GalNAc(b1-3)GalNAc,-1.32
same,glycan array binding signal (z-score),GalNAc(b1-3)GlcNAc,-0.448
same,glycan array binding signal (z-score),GalNAc(b1-4)Gal(b1-4)Glc,-0.265
same,glycan array binding signal (z-score),GalNAc(b1-4)GlcNAc,-0.003
same,glycan array binding signal (z-score),[6],-0.678
same,glycan array binding signal (z-score),[7],0.105
same,glycan array binding signal (z-score),[8],-0.662
same,glycan array binding signal (z-score),GalNAc(b1-4)GlcNAc6S,-1.36
same,glycan array binding signal (z-score),GalNAc(b1-6)GalNAc,1.99
same,glycan array binding signal (z-score),GalNAc3S(b1-4)GlcNAc,0.725
same,glycan array binding signal (z-score),GalNAc3S(b1-4)GlcNAc3S,-1.41
same,glycan array binding signal (z-score),[9],0.629
same,glycan array binding signal (z-score),GalNAc4S6S(b1-4)GlcNAc,0.618
same,glycan array binding signal (z-score),GalNAc6S(b1-4)GlcNAc,-0.071
same,glycan array binding signal (z-score),Glc(a1-4)Glc,-0.862
same,glycan array binding signal (z-score),[10],-0.119
same,glycan array binding signal (z-score),Glc(a1-6)Glc(a1-6)Glc,-0.575
same,glycan array binding signal (z-score),[11],0
same,glycan array binding signal (z-score),Glc(b1-4)Glc,0.621
same,glycan array binding signal (z-score),Glc(b1-6)Glc,-0.212

# Quoted at random: three records from the list, in no set order.
binder,measurement,setting,value
Epf (Streptococcus pyogenes) (protein) GDHGPEFNGVMVVKAAEAEELPDDLMNFKGTWEVSADGSSGRFFSKGATDSYVFHLIPAKDVKKPGWREHNEVKDSYIKIDKQSIAARYKTSTTAPYSVAFKVNTKSLIKDHDYKITFEQGQIASGITVDYRIGSAFNKTTDDSFKISDESKYASNVKIEGEEQGFKQREQGDKTISFRTLKEGPMSLVLLSKVEKKPQGDLDVEFKNLKIIDVTNPSQLDKGVAYVGNKNVQLTLKSDDGRTNFEGDEISLFNSRGELLQTVTVTKDQQNPISITLSEDQAKSLKNKEKLKVSIKQKQSKKTSKDFFFEVGIDPKVEAKQKEKLLELDKVKKQIEDSINGDAWLPEKPVDLQGDHGLSAWSHPQFEK,glycan array binding signal (z-score),Glc(a1-4)Glc,-0.862
same,glycan array binding signal (z-score),Glc(b1-4)Glc,0.621
same,glycan array binding signal (z-score),[4],-0.002
